Experimental data reported in paper PMC8964682, “Structural and biochemical characterization of in vivo assembled Lactococcus lactis CRISPR-Csm complex” (Communications Biology, 2022).

Key:
[1] = target: T1, Lactococcus lactis Csm2 with N-terminal His6-tag, subunit of the LlCsm complex (Lactococcus lactis) (UniProt L0CFW2); experiment: cryo-EM structure; apo subpopulation from a mixture of LlCsm with DTR, no DTR bound; 4.5 Å; no model built, used only to confirm presence and placement of the subunits; both purified
T1 sequence: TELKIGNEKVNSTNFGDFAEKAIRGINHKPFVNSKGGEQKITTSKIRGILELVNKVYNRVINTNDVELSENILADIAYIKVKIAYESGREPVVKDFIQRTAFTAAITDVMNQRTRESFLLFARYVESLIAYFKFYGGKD

[2] = target: T2, Lactococcus lactis Csm4, subunit of the LlCsm complex (Lactococcus lactis) (UniProt L0CFH1); experiment: as above
T2 sequence: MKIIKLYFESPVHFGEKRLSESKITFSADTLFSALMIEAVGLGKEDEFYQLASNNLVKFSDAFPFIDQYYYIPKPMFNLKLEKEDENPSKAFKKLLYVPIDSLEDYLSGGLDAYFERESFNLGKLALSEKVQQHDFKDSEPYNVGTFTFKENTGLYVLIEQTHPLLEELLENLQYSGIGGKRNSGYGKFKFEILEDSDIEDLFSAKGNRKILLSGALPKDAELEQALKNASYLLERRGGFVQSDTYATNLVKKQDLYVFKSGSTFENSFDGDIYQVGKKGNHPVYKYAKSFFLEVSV

[3] = target: T2, Lactococcus lactis Csm4, subunit of the LlCsm complex (Lactococcus lactis); experiment: cryo-EM structure; co-purified LlCsm (Csm1 D14N, Csm3 D30A)-crRNA incubated with CTR at 1:2, 37 °C, 60 min, then SEC; no ATP; two classes, CTR-43 (3.0 Å) and CTR-32 (3.3 Å); both purified
[4] = target: T1, Lactococcus lactis Csm2 with N-terminal His6-tag, subunit of the LlCsm complex (Lactococcus lactis); experiment: cryo-EM structure; co-purified LlCsm (Csm1 D14N, Csm3 D30A)-crRNA incubated with NTR at 1:2, 37 °C, 60 min, then SEC; 3.4 Å; both purified
[5] = target: T2, Lactococcus lactis Csm4, subunit of the LlCsm complex (Lactococcus lactis); experiment: as above
[6] = target: T2, Lactococcus lactis Csm4, subunit of the LlCsm complex (Lactococcus lactis); experiment: cryo-EM structure; co-purified LlCsm (Csm1 D14N, Csm3 D30A)-crRNA without target RNA (apo); 2.9 Å; both purified

Measured: binding

Lactococcus lactis Csm1 (Cas10) Asp14Asn, subunit of the LlCsm (D14N)1(D30A)3 complex
binds: all assays above

No constants are given. Whether binding was seen depends on the method and setting. Binding calls can cover weak binding; strength is not graded here. For part of these data: Where a sequence is shown, tags or fusion partners need not be part of it. For part of these data: In cells and extracts the contact can be indirect.
